Entries after “also recorded” stand apart in the source; their conditions may differ. Read-outs that look alike come from different tables or passages of the source.
What was measured:
[1] = Overcharge protection (redox shuttle) cycling; conditions: for Quantitative Measure of Overcharge Protection (Redox Shuttle) Performance: 100% overcharge, 0.08 M, testing in progress (FIGS. 10, 11)
[2] = 100% overcharge; BCF3EPT at ca. 3.8 V; data from refs 29, 30, 32; cited from earlier work
[3] = Half-cell (coin cell vs lithium metal) cycling

| Compound | Practical for Overcharge Protection? [1] | Quantitative Measure of Overcharge Protection (Redox Shuttle) Performance [2] | also measured |
| --- | --- | --- | --- |
| CCN1c2ccc(C#N)cc2Sc2cc(C#N)ccc21 [BCF3(4-CF3C6H4)PT] | Yes, because | – | Quantitative Measure of Overcharge Protection (Redox Shuttle) Performance [1]: >70 cycles at 100% |
| CCN1c2ccc(C(F)(F)C(F)(F)F)cc2Sc2cc(C(F)(F)C(F)(F)F)ccc21 [BCF3CF2EPT] | Yes, because | – | Quantitative Measure of Overcharge Protection (Redox Shuttle) Performance [1]: >10 cycles at 100% |
| CCN1c2ccc(C(F)(F)F)cc2Sc2cc(C(F)(F)F)ccc21 [BCF3EPT, 3,7-bis(trifluoromethyl)-N-ethylphenothiazine] | Yes, because | ~250 cycles of | cycles with charge capacity unchanged ([3]; 0.25 M in 1.0 M LiBF4 in PC, coin cell vs Li, 3.5-4.2 V, 0.1 mA): more than 250 cycles; coulombic efficiency ([3]; coin cell, 250 cycles): 80-90%; energy efficiency ([3]; coin cell, 250 cycles): 80-90%; voltage efficiency ([3]; coin cell, stabilized): ca. 97%; Quantitative Measure of Redox Flow Performance: coulombic efficiency ([3]; in half cells): date with >99%; Quantitative Measure of Redox Flow Performance: charge/discharge cycles completed ([3]; in half cells, to date): >250 cycles |
| CCN1c2ccc(Br)cc2Sc2cc(Br)ccc21 [DBrEPT] | No, it is | 2-5 cycles | – |
| CCN1c2ccc(C#N)cc2Sc2cc(C#N)ccc21 [DCNEPT] | No, they are | 0-1 cycles | – |
| CCN1c2ccc(Cl)cc2Sc2cc(Cl)ccc21 [DClEPT] | practical; also recorded: Yes, because | 19-37 cycles | – |
| CCN1c2ccc([N+](=O)[O-])cc2Sc2cc([N+](=O)[O-])ccc21 [DNO2EPT] | No, they are | 0 cycles | – |
| CCN1c2ccccc2Sc2ccccc21 [EPT] | practical; also recorded: Yes, because | 65-160 cycles | – |
| CN1c2ccccc2Sc2ccccc21 [MPT] | No, although | 5 cycles | – |
| c1ccc2c(c1)Nc1ccccc1S2 [PT] | No, because | 2-3 cycles | – |

Source: US10153510B2, “Non-aqueous redox flow batteries including 3,7-perfluoroalkylated phenothiazine derivatives” (University of Kentucky Research Foundation, priority 2014, dated 2018)
